# Laboratory results taken from the supplement of paper PMC12067093, “Discovery and optimisation of a covalent ligand for TRIM25 and its application to targeted protein ubiquitination” (Chemical Science, 2025).
# Chains of the proteins cited; added tags and fusions are not shown. Lines headed by an entry give the natural chain unless they say otherwise; changes in a name come on top.
# UniProt Q13574: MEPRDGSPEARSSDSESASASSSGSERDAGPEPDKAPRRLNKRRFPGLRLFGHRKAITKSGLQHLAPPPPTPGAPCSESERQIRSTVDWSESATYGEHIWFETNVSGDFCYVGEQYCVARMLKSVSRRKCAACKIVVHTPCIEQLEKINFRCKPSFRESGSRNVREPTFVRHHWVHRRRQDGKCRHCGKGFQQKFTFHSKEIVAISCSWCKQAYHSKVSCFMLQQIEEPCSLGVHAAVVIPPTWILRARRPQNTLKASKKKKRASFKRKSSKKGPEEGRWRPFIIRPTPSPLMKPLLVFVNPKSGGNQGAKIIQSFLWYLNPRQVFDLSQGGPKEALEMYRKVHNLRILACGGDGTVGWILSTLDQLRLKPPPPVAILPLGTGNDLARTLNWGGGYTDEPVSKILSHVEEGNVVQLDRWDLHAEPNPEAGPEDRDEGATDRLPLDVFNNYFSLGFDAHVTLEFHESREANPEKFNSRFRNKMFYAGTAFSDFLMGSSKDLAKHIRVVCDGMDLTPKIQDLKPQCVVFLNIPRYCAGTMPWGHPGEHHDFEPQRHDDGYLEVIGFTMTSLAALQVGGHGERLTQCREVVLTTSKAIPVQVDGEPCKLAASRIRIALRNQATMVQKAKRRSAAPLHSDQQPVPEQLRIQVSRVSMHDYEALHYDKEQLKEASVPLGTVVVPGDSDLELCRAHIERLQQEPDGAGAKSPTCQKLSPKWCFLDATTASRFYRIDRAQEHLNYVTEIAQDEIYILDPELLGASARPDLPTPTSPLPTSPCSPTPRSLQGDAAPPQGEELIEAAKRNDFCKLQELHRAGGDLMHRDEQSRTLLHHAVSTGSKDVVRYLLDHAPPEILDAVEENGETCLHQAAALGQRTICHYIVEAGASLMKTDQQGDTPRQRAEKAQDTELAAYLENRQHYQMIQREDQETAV
# UniProt A2RUS2: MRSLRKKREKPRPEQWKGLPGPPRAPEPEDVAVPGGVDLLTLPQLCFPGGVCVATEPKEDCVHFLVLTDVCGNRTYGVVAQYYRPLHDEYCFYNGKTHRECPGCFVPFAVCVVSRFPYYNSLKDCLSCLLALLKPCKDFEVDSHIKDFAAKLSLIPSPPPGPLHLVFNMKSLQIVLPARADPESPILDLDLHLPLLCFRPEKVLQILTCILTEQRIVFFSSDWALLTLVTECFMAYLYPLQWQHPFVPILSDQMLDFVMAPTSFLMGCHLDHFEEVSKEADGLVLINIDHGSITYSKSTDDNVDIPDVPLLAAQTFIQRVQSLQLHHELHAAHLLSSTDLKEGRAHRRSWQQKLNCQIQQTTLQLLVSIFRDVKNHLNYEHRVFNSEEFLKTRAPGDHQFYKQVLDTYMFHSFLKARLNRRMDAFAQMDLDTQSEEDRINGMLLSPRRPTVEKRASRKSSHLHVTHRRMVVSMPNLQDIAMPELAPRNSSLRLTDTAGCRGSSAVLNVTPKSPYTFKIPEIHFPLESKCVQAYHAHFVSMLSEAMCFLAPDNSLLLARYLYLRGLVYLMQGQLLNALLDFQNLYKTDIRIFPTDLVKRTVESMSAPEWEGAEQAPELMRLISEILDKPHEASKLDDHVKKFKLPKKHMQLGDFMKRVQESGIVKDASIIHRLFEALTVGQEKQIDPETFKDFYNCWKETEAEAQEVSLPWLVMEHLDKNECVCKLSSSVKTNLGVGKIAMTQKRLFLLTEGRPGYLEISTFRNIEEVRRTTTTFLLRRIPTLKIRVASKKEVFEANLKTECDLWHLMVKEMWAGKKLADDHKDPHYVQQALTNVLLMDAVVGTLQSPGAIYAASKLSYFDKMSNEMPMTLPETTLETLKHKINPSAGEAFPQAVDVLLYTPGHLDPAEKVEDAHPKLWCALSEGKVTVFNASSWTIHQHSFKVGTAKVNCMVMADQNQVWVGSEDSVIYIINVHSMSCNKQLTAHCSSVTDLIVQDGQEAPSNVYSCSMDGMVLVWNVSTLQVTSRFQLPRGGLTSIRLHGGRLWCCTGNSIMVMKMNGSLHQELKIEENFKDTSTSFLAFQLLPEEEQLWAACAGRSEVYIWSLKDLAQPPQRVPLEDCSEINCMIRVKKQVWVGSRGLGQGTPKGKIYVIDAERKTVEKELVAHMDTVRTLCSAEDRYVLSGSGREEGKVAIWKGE
# UniProt Q9NVP1: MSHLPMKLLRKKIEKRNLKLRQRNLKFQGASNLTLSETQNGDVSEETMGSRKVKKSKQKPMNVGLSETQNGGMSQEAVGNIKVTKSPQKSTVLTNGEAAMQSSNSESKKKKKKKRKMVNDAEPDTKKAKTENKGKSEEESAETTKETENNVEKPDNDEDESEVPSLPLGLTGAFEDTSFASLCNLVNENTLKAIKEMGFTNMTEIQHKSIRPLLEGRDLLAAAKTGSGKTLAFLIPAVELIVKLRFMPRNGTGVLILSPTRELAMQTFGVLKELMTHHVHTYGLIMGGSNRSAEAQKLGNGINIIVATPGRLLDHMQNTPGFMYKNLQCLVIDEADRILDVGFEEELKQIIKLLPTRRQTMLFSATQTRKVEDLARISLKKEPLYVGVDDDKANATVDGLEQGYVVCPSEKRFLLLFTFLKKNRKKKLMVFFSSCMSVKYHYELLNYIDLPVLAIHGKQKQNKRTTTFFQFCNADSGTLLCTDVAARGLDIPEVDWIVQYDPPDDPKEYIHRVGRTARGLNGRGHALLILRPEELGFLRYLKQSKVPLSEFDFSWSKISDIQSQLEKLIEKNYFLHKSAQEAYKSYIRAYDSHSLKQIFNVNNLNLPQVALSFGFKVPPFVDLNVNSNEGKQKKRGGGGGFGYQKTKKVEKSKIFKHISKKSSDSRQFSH
# UniProt Q92499: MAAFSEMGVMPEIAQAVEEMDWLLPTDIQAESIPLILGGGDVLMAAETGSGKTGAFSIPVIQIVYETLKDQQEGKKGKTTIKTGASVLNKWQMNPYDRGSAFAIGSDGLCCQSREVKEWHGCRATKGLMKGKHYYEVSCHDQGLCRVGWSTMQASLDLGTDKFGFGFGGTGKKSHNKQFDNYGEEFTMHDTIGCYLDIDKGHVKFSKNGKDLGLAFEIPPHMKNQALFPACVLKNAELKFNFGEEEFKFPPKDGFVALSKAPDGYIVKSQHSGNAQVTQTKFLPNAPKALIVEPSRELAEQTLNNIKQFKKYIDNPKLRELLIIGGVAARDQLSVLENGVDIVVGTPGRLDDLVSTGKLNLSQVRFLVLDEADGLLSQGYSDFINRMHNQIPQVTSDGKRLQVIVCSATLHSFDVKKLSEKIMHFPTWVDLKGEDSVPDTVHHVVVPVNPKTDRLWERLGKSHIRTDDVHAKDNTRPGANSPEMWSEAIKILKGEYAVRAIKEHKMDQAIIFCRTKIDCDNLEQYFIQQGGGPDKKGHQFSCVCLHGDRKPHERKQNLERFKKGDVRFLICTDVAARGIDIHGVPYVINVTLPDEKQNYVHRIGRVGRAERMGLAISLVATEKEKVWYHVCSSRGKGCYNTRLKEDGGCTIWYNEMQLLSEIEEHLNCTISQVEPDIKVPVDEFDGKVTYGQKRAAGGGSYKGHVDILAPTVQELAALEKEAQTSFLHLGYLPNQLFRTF
# UniProt Q92564: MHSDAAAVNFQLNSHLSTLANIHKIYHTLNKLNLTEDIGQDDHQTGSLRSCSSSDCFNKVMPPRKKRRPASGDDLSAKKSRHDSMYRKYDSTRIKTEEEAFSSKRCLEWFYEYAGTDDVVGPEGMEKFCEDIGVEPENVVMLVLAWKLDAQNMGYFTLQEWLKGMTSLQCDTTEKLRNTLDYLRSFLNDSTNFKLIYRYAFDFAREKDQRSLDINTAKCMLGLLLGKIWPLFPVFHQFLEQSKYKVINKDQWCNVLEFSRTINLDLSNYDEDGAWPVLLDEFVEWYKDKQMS
# UniProt Q96GQ7: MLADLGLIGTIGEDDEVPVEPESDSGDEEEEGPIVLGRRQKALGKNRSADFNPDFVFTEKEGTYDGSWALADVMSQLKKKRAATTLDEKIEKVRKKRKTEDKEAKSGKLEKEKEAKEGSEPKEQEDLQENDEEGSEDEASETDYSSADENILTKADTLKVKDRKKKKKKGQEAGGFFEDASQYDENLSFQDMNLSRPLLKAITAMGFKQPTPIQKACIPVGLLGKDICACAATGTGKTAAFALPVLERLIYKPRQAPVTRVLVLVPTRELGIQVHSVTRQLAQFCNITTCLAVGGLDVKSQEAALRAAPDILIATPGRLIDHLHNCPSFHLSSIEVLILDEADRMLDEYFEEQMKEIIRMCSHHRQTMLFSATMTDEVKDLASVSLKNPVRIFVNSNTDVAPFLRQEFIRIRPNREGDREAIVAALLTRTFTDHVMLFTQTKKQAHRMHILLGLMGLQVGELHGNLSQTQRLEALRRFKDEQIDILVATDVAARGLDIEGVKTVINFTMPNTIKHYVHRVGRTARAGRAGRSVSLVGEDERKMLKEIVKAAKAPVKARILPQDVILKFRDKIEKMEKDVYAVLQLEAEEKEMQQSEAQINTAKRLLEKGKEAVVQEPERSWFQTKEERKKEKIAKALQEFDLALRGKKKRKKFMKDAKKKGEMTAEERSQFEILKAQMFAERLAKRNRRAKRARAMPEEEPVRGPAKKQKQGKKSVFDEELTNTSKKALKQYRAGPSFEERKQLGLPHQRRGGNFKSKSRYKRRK
# UniProt Q5H9U9: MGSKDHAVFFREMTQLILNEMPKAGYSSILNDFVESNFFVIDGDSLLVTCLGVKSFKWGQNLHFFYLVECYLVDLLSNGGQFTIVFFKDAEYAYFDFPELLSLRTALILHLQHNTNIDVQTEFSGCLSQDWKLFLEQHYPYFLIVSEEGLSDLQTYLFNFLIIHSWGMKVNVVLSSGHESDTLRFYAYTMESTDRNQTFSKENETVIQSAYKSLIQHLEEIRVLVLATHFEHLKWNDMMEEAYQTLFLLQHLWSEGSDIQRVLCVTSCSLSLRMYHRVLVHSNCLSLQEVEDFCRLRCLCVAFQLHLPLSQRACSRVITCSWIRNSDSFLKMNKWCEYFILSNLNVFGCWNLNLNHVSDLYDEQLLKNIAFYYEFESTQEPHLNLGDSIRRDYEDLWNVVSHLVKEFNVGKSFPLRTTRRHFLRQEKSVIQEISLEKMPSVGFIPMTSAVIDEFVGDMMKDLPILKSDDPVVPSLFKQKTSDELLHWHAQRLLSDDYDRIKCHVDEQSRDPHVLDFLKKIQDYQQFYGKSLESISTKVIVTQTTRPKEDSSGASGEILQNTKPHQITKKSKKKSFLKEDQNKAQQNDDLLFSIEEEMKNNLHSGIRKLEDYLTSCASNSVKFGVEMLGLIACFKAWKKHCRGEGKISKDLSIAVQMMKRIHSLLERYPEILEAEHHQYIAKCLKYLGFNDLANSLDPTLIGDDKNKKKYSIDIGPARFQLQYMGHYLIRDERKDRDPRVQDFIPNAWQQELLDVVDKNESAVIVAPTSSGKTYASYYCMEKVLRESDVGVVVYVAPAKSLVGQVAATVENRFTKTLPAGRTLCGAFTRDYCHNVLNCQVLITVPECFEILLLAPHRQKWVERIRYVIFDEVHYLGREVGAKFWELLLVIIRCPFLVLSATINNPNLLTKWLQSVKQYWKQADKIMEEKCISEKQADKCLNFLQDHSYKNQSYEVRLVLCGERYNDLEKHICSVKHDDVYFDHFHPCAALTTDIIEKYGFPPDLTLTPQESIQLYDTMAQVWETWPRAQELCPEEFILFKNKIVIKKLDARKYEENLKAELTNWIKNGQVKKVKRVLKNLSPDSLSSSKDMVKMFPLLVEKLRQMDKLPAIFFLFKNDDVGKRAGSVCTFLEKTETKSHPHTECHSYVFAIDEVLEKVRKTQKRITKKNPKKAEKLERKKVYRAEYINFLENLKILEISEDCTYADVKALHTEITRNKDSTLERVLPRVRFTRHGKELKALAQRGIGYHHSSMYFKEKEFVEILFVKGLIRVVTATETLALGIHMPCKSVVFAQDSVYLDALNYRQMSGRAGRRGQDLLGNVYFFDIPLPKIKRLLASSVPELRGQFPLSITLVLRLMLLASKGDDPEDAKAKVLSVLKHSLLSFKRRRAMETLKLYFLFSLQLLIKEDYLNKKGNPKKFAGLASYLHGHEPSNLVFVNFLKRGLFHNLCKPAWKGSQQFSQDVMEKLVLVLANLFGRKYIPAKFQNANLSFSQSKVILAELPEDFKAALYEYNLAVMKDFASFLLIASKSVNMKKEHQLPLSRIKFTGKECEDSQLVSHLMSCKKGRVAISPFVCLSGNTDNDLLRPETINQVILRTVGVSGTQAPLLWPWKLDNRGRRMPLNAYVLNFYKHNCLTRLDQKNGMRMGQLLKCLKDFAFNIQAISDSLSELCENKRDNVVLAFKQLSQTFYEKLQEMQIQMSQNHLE
# UniProt Q9NUI1: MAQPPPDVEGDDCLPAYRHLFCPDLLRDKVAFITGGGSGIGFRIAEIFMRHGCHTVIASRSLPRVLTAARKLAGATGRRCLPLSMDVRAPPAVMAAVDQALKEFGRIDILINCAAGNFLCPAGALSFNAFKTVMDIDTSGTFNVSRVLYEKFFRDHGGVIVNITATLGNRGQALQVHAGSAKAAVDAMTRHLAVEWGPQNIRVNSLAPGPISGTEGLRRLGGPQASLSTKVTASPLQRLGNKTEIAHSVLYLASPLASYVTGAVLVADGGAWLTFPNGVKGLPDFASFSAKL
# The other results are listed elsewhere or left out.
# Compound: CC1Cc2ccccc2N1C(=O)C1CCCN(C1)C(=O)CCl (mixture of isomers) [TRIM25 ligand 11 (diastereomer mixture)]
# Assay: probe-labelled cysteine peptide fold change vs DMSO (competition) (log2 fold change); higher = less target engagement (more negative = stronger competition)
# Conditions: THP-1, incubation time: 4 h
# 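Also: competitive chemoproteomic profiling in live THP-1 cells with an iodoacetamide desthiobiotin (IA-DTB) probe, comparing probe-labelled peptide intensities in compound-treated cells against DMSO-treated controls.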
target,measurement,setting,value
DDX39B_Q13838_198_HFILDECDK (UniProt Q13838),probe-labelled cysteine peptide fold change,10 µM,-0.0282
same,probe-labelled cysteine peptide fold change,50 µM,0.027
DDX55_Q8NHQ9_161_AEGLDLASCVR (UniProt Q8NHQ9),probe-labelled cysteine peptide fold change,10 µM,0.0838
same,probe-labelled cysteine peptide fold change,50 µM,-0.0351
DEAF1_O75398_401_ASHPEPHYPGYQDSCQIAPFPEAALPTSHPK (UniProt O75398),probe-labelled cysteine peptide fold change,10 µM,0.0195
same,probe-labelled cysteine peptide fold change,50 µM,-0.139
DENND4C_Q5VZ89_1086_ILTAALTCPK (UniProt Q5VZ89),probe-labelled cysteine peptide fold change,10 µM,-0.124
same,probe-labelled cysteine peptide fold change,50 µM,-0.238
DDX31_Q9H8H2_660_MEDILCVLTR (UniProt Q9H8H2),probe-labelled cysteine peptide fold change,10 µM,-0.0234
same,probe-labelled cysteine peptide fold change,50 µM,-0.0546
DGKZ_Q13574_905_WCFLDATTASR (UniProt Q13574),probe-labelled cysteine peptide fold change,10 µM,0.042
same,probe-labelled cysteine peptide fold change,50 µM,0.0491
DENND3_A2RUS2_61_EDCVHFLVLTDVCGNR (UniProt A2RUS2),probe-labelled cysteine peptide fold change,10 µM,0.0659
same,probe-labelled cysteine peptide fold change,50 µM,0.04
DDX18_Q9NVP1_407_ANATVDGLEQGYVVCPSEK (UniProt Q9NVP1),probe-labelled cysteine peptide fold change,10 µM,0.122
same,probe-labelled cysteine peptide fold change,50 µM,0.257
DDX24_Q9GZR7_467_CLVVDEADRMVEK (UniProt Q9GZR7),probe-labelled cysteine peptide fold change,10 µM,-0.109
same,probe-labelled cysteine peptide fold change,50 µM,-0.0385
DDX46_Q7L014_478_VVCVYGGTGISEQIAELKR (UniProt Q7L014),probe-labelled cysteine peptide fold change,10 µM,-0.0396
same,probe-labelled cysteine peptide fold change,50 µM,-0.03
DDX18_Q9NVP1_329_NLQCLVIDEADRILDVGFEEELK (UniProt Q9NVP1),probe-labelled cysteine peptide fold change,10 µM,-0.227
same,probe-labelled cysteine peptide fold change,50 µM,-0.196
DGKD_Q16760_596_LVASACPARPQIFRPR (UniProt Q16760),probe-labelled cysteine peptide fold change,10 µM,-0.0465
same,probe-labelled cysteine peptide fold change,50 µM,0.0807
DCUN1D1_Q96GG9_131_QEFMDGMTELGCDSIEK (UniProt Q96GG9),probe-labelled cysteine peptide fold change,10 µM,0.133
same,probe-labelled cysteine peptide fold change,50 µM,0.121
DDX5_P17844_89_GHNCPKPVLNFYEANFPANVMDVIAR (UniProt P17844),probe-labelled cysteine peptide fold change,10 µM,-0.235
same,probe-labelled cysteine peptide fold change,50 µM,-0.239
DDX1_Q92499_571_FLICTDVAAR (UniProt Q92499),probe-labelled cysteine peptide fold change,10 µM,0.0469
same,probe-labelled cysteine peptide fold change,50 µM,0.0863
DCUN1D4_Q92564_253_DQWCNVLEFSR (UniProt Q92564),probe-labelled cysteine peptide fold change,10 µM,0.0408
same,probe-labelled cysteine peptide fold change,50 µM,-0.0279
DDX27_Q96GQ7_357_LIDHLHNCPSFHLSSIEVLILDEADR (UniProt Q96GQ7),probe-labelled cysteine peptide fold change,10 µM,0.388
same,probe-labelled cysteine peptide fold change,50 µM,0.0579
DGKZ_Q13574_697_VVCDGMDLTPK (UniProt Q13574),probe-labelled cysteine peptide fold change,10 µM,0.0189
same,probe-labelled cysteine peptide fold change,50 µM,-0.127
DENND4B_O75064_636_LYSQLLHTQMFSQFIEECSFGSAR (UniProt O75064),probe-labelled cysteine peptide fold change,10 µM,0.237
same,probe-labelled cysteine peptide fold change,50 µM,0.0689
DDX42_Q86XP3_382_ALQEGAEIVVCTPGR (UniProt Q86XP3),probe-labelled cysteine peptide fold change,10 µM,0.0737
same,probe-labelled cysteine peptide fold change,50 µM,0.0996
DDX21_Q9NR30_291_KLSVACFYGGTPYGGQFER (UniProt Q9NR30),probe-labelled cysteine peptide fold change,10 µM,-0.472
same,probe-labelled cysteine peptide fold change,50 µM,-0.15
DDAH2_O95865_220_AMAVLTDHPYASLTLPDDAAADCLFLRPGLPGVPPFLLHR (UniProt O95865),probe-labelled cysteine peptide fold change,10 µM,0.162
same,probe-labelled cysteine peptide fold change,50 µM,0.157
DDX58_O95786_869_QNCSHDWGIHVK (UniProt O95786),probe-labelled cysteine peptide fold change,10 µM,-0.117
same,probe-labelled cysteine peptide fold change,50 µM,-0.055
DDX60L_Q5H9U9_502_CHVDEQSR (UniProt Q5H9U9),probe-labelled cysteine peptide fold change,10 µM,-0.013
same,probe-labelled cysteine peptide fold change,50 µM,-0.526
DDX1_Q92499_122_EWHGCR (UniProt Q92499),probe-labelled cysteine peptide fold change,10 µM,-0.0432
same,probe-labelled cysteine peptide fold change,50 µM,-0.0243
DENND3_A2RUS2_723_NECVCK (UniProt A2RUS2),probe-labelled cysteine peptide fold change,10 µM,-0.0349
same,probe-labelled cysteine peptide fold change,50 µM,0.115
DDX50_Q9BQ39_417_QNAQCLHGDIAQSQR (UniProt Q9BQ39),probe-labelled cysteine peptide fold change,10 µM,0.0732
same,probe-labelled cysteine peptide fold change,50 µM,-0.163
DDX60L_Q5H9U9_986_HDDVYFDHFHPCAALTTDIIEK (UniProt Q5H9U9),probe-labelled cysteine peptide fold change,10 µM,0.0568
same,probe-labelled cysteine peptide fold change,50 µM,0.053
DECR2_Q9NUI1_13_AQPPPDVEGDDCLPAYR (UniProt Q9NUI1),probe-labelled cysteine peptide fold change,10 µM,-0.174
same,probe-labelled cysteine peptide fold change,50 µM,0.067
DDX20_Q9UHI6_98_CGLDLIVQAK (UniProt Q9UHI6),probe-labelled cysteine peptide fold change,10 µM,-0.014
same,probe-labelled cysteine peptide fold change,50 µM,-0.0217
DENND3_A2RUS2_919_LWCALSEGK (UniProt A2RUS2),probe-labelled cysteine peptide fold change,10 µM,0.243
same,probe-labelled cysteine peptide fold change,50 µM,0.0981
DENND1B_Q6P3S1_52_FCFPFDVER (UniProt Q6P3S1),probe-labelled cysteine peptide fold change,10 µM,0.0197
same,probe-labelled cysteine peptide fold change,50 µM,0.0824
DDX60_Q8IY21_1591_VAISPFVCLSGNFDDDLLRLETPNHVTLGTIGVNR (UniProt Q8IY21),probe-labelled cysteine peptide fold change,10 µM,-0.227
same,probe-labelled cysteine peptide fold change,50 µM,-0.391
DDX46_Q7L014_590_SVVCSDVEQQVIVIEEEK (UniProt Q7L014),probe-labelled cysteine peptide fold change,10 µM,0.0692
same,probe-labelled cysteine peptide fold change,50 µM,0.0608
DDX17_Q92841_431_RCDDLTR (UniProt Q92841),probe-labelled cysteine peptide fold change,10 µM,-0.0927
same,probe-labelled cysteine peptide fold change,50 µM,-0.0682
DENND4A_Q7Z401_648_DASLAFFDDCVDKVDMDK (UniProt Q7Z401),probe-labelled cysteine peptide fold change,10 µM,-0.0956
same,probe-labelled cysteine peptide fold change,50 µM,-0.12
DEF6_Q9H4E7_246+253_WFQLQPSCLCYFGSEECK (UniProt Q9H4E7),probe-labelled cysteine peptide fold change,10 µM,0.0464
same,probe-labelled cysteine peptide fold change,50 µM,0.143
DDX27_Q96GQ7_248_ACIPVGLLGK (UniProt Q96GQ7),probe-labelled cysteine peptide fold change,10 µM,-0.0949
same,probe-labelled cysteine peptide fold change,50 µM,-0.114
